Reference: article PMC9300173
No constants are given. Whether binding was seen depends on the method and setting. A result given as binding can be weak or reduced; the word gives no strength. Where a sequence is shown, tags or fusion partners need not be part of it.

Target: Lew1, yeast two-hybrid fusion (Arabidopsis thaliana)
Experiment: two-hybrid; pGADT7-GW and pGBKT7-GW in S. cerevisiae AH109; serial dilutions of double transformants on -Leu/-Trp/-His plates with 1 mM 3-AT; at least three replicates

binding: binds
B1: cis-prenyltransferase 3 (CPT3), yeast two-hybrid fusion (enzyme, UniProt Q8S2T1 1-295)
chain: MAELPGQIRHIGGRMSQLLEQIYGFSRRSLFRVISMGPIPCHIAFIMDGNRRYAKKCGLLDGSGHKAGFSALMSMLQYCYELGIKYVTIYAFSIDNFRRKPEEVESVMDLMLEKIKSLLEKESIVHQYGIRVYFIGNLALLNDQVRAAAEKVMKATAKNSRVVLLICIAYNSTDEIVQAVKKSCINKSDNIEASNYKHEDSDSDIEGTDMENQEKKIQLVDIEENMQMSVAPNPDILIRSSGETRLSNFLLWQTGNTQLCSPAALWPEIGLRHLLWAILNFQRNHSYLEKRKKQL
